Test results as given in article doi:10.1101/2023.08.11.553045.
These are yes or no findings as the source states them, for the method shown. Binding seen in cells or lysates may run through a third protein. Some entries that bind do so weakly or less than the wild type. Sequences can lack the tags named with a protein.

Chains of the proteins cited; added tags and fusions are not shown. Lines headed by an entry give the natural chain unless they say otherwise; changes in a name come on top.
UniProt Q86WV6, whole entry: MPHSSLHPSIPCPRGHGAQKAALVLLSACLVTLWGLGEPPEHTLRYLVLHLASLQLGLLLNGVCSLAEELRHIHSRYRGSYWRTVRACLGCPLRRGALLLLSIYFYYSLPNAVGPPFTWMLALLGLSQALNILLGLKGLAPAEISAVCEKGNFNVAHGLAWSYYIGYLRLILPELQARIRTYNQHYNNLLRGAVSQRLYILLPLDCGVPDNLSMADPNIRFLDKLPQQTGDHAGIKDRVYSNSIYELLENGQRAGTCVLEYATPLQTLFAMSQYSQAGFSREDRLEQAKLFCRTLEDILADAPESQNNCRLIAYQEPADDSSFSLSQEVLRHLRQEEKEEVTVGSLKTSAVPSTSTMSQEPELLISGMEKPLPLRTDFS

Key:
[1] = biological target: HA-tagged STING-C64S (human) (UniProt Q86WV6); assay: co-IP
[2] = biological target: HA-tagged WT-STING (human), Q86WV6; assay: co-IP; details: remark: other sources report otherwise

Binder	binding [1]	binding [2]
TBK1-FLAG (enzyme, UniProt Q9UHD2 1-729) MQSTSNHLWLLSDILGQGATANVFRGRHKKTGDLFAIKVFNNISFLRPVDVQMREFEVLKKLNHKNIVKLFAIEEETTTRHKVLIMEFCPCGSLYTVLEEPSNAYGLPESEFLIVLRDVVGGMNHLRENGIVHRDIKPGNIMRVIGEDGQSVYKLTDFGAARELEDDEQFVSLYGTEEYLHPDMYERAVLRKDHQKKYGATVDLWSIGVTFYHAATGSLPFRPFEGPRRNKEVMYKIITGKPSGAISGVQKAENGPIDWSGDMPVSCSLSRGLQVLLTPVLANILEADQEKCWGFDQFFAETSDILHRMVIHVFSLQQMTAHKIYIHSYNTATIFHELVYKQTKIISSNQELIYEGRRLVLEPGRLAQHFPKTTEENPIFVVSREPLNTIGLIYEKISLPKVHPRYDLDGDASMAKAITGVVCYACRIASTLLLYQELMRKGIRWLIELIKDDYNETVHKKTEVVITLDFCIRNIEKTVKVYEKLMKINLEAAELGEISDIHTKLLRLSSSQGTIETSLQDIDSRLSPGGSLADAWAHQEGTHPKDRNVEKLQVLLNCMTEIYYQFKKDKAERRLAYNEEQIHKFDKQKLYYHATKAMTHFTDECVKKYEAFLNKSEEWIRKMLHLRKQLLSLTNQCFDIEEEVSKYQEYTNELQETLPQKMFTASSGIKHTMTPIYPSSNTLVEMTLGMKKLKEEMEGVVKELAENNHILERFGSLTMDGGLRNVDCL	binds	–
TBK1-FLAG, Q9UHD2 1-729 (enzyme) MQSTSNHLWLLSDILGQGATANVFRGRHKKTGDLFAIKVFNNISFLRPVDVQMREFEVLKKLNHKNIVKLFAIEEETTTRHKVLIMEFCPCGSLYTVLEEPSNAYGLPESEFLIVLRDVVGGMNHLRENGIVHRDIKPGNIMRVIGEDGQSVYKLTDFGAARELEDDEQFVSLYGTEEYLHPDMYERAVLRKDHQKKYGATVDLWSIGVTFYHAATGSLPFRPFEGPRRNKEVMYKIITGKPSGAISGVQKAENGPIDWSGDMPVSCSLSRGLQVLLTPVLANILEADQEKCWGFDQFFAETSDILHRMVIHVFSLQQMTAHKIYIHSYNTATIFHELVYKQTKIISSNQELIYEGRRLVLEPGRLAQHFPKTTEENPIFVVSREPLNTIGLIYEKISLPKVHPRYDLDGDASMAKAITGVVCYACRIASTLLLYQELMRKGIRWLIELIKDDYNETVHKKTEVVITLDFCIRNIEKTVKVYEKLMKINLEAAELGEISDIHTKLLRLSSSQGTIETSLQDIDSRLSPGGSLADAWAHQEGTHPKDRNVEKLQVLLNCMTEIYYQFKKDKAERRLAYNEEQIHKFDKQKLYYHATKAMTHFTDECVKKYEAFLNKSEEWIRKMLHLRKQLLSLTNQCFDIEEEVSKYQEYTNELQETLPQKMFTASSGIKHTMTPIYPSSNTLVEMTLGMKKLKEEMEGVVKELAENNHILERFGSLTMDGGLRNVDCL	–	binds
